Experimental data reported in PubChem BioAssay AID248 (DTP/NCI, 2004).
The list shows only some results of the screen, not a fair sample: it gathers tests that were run many times, whatever their T/C, doses with no T/C, and many T/C values between a quarter and a half above the control. Other doses and runs of a compound stand elsewhere. T/C gives the treated animals as a percentage of the vehicle group. Some entries give survivors of the animals treated and no T/C: the source holds a T/C of zero for them, seemingly a mark for toxic or unscored doses. Some survivor counts are full or nearly so, which does not show that the dose was tolerated: survival well below the control is almost never listed, so the zero probably covers shortened survival too. Survivors were counted at the toxicity check, usually on the fifth day, unless a day is given; later deaths do not show. Schedules are NCI's codes, taken here to give the interval after Q, in days (D) or hours (H), and the number of doses after X. Some entries were tested several times; the results are listed from low to high. Where survival is the endpoint, this PubChem deposit counts one and a half times the control or more as active, and values a quarter to a half above the control carry no call in these data; other NCI protocols may use other cut-offs.

System: L1210 leukemia ip in BDF1 mice, survival T/C
Test: NCI In Vivo Anticancer Drug Screen. Data for tumor model L1210 Leukemia (intraperitoneal) in B6D2F1 (BDF1) mice
Settings: higher T/C = longer survival
[1] = T/C endpoint: mean survival time, dose: 16.0 mg/kg/injection, schedule: Q04DX003 (ip), vehicle: saline
[2] = T/C endpoint: mean survival time, dose: 24.0 mg/kg/injection, schedule: Q01DX001 (ip), vehicle: saline

## OC(C1CO1)C(O)C1CO1 (stereo not drawn)
T/C endpoint: mean survival time, dose: 16.0 mg/kg/injection, schedule: Q01DX009 (oral), vehicle: saline
  survivor count: 3 of 10
T/C endpoint: mean survival time, dose: 16.0 mg/kg/injection, schedule: Q01DX009 (sc), vehicle: saline
  survivor count: 2 of 10
[1]
  T/C: 144 % of control
  survivor count: 1 of 6, 6 of 10, 8 of 10
T/C endpoint: mean survival time, dose: 16.0 mg/kg/injection, schedule: Q08DX002 (ip), vehicle: saline
  survivor count: 6 of 10 and 4 of 6
T/C endpoint: mean survival time, dose: 16.5 mg/kg/injection, schedule: Q01DX009 (ip), vehicle: saline
  survivor count: 5 of 6
T/C endpoint: mean survival time, dose: 21.0 mg/kg/injection, schedule: Q01DX001 (ip), vehicle: saline
  survivor count: 4 of 6
[2]
  T/C: 136 % of control
  survivor count: 4 of 6
T/C endpoint: mean survival time, dose: 24.0 mg/kg/injection, schedule: Q01DX009 (ip), vehicle: saline
  survivor count: 6 of 6
T/C endpoint: mean survival time, dose: 24.0 mg/kg/injection, schedule: Q04DX003 (ip), vehicle: saline
  survivor count: 0 of 6
T/C endpoint: mean survival time, dose: 24.0 mg/kg/injection, schedule: Q08DX002 (ip), vehicle: saline
  survivor count: 4 of 6
T/C endpoint: mean survival time, dose: 25.0 mg/kg/injection, schedule: Q01DX009 (ip), vehicle: saline
  survivor count: 6 of 6
T/C endpoint: mean survival time, dose: 32.0 mg/kg/injection, schedule: Q01DX001 (ip), vehicle: saline
  survivor count: 1 of 10
T/C endpoint: mean survival time, dose: 32.0 mg/kg/injection, schedule: Q01DX001 (oral), vehicle: saline
  survivor count: 3 of 10
T/C endpoint: mean survival time, dose: 32.0 mg/kg/injection, schedule: Q01DX001 (sc), vehicle: saline
  survivor count: 0 of 10
T/C endpoint: mean survival time, dose: 32.0 mg/kg/injection, schedule: Q01DX009 (oral), vehicle: saline
  survivor count: 5 of 10
T/C endpoint: mean survival time, dose: 32.0 mg/kg/injection, schedule: Q08DX002 (ip), vehicle: saline
  survivor count: 1 of 10
T/C endpoint: mean survival time, dose: 42.0 mg/kg/injection, schedule: Q01DX009 (ip), vehicle: saline
  survivor count: 1 of 6
T/C endpoint: mean survival time, dose: 50.0 mg/kg/injection, schedule: Q01DX009 (ip), vehicle: saline
  survivor count: 6 of 6
T/C endpoint: mean survival time, dose: 63.0 mg/kg/injection, schedule: Q01DX009 (ip), vehicle: saline
  survivor count: 3 of 6
T/C endpoint: mean survival time, dose: 64.0 mg/kg/injection, schedule: Q01DX001 (oral), vehicle: saline
  survivor count: 2 of 10
T/C endpoint: mean survival time, dose: 64.0 mg/kg/injection, schedule: Q01DX001 (sc), vehicle: saline
  survivor count: 0 of 10
T/C endpoint: mean survival time, dose: 64.0 mg/kg/injection, schedule: Q01DX009 (oral), vehicle: saline
  survivor count: 3 of 10
T/C endpoint: mean survival time, dose: 75.0 mg/kg/injection, schedule: Q01DX001 (ip), vehicle: saline
  survivor count: 5 of 6
T/C endpoint: mean survival time, dose: 94.0 mg/kg/injection, schedule: Q01DX009 (ip), vehicle: saline
  survivor count: 4 of 6
T/C endpoint: mean survival time, dose: 100.0 mg/kg/injection, schedule: Q01DX009 (ip), vehicle: water
  survivor count: 9 of 10
T/C endpoint: mean survival time, dose: 100.0 mg/kg/injection, schedule: Q04DX003 (ip), vehicle: saline
  survivor count: 4 of 6
T/C endpoint: mean survival time, dose: 118.0 mg/kg/injection, schedule: Q01DX001 (ip), vehicle: saline
  survivor count: 0 of 6
T/C endpoint: mean survival time, dose: 118.0 mg/kg/injection, schedule: Q04DX003 (ip), vehicle: saline
  survivor count: 3 of 6
T/C endpoint: mean survival time, dose: 128.0 mg/kg/injection, schedule: Q01DX001 (oral), vehicle: saline
  survivor count: 3 of 10
T/C endpoint: mean survival time, dose: 140.0 mg/kg/injection, schedule: Q01DX009 (ip), vehicle: saline
  survivor count: 5 of 6
T/C endpoint: mean survival time, dose: 150.0 mg/kg/injection, schedule: Q01DX001 (ip), vehicle: saline
  survivor count: 5 of 6
T/C endpoint: mean survival time, dose: 177.0 mg/kg/injection, schedule: Q01DX001 (ip), vehicle: saline
  survivor count: 3 of 6
T/C endpoint: mean survival time, dose: 177.0 mg/kg/injection, schedule: Q04DX003 (ip), vehicle: saline
  survivor count: 5 of 6
T/C endpoint: mean survival time, dose: 177.0 mg/kg/injection, schedule: Q08DX002 (ip), vehicle: saline
  survivor count: 2 of 6
T/C endpoint: mean survival time, dose: 200.0 mg/kg/injection, schedule: Q04DX003 (ip), vehicle: saline
  survivor count: 6 of 6
T/C endpoint: mean survival time, dose: 210.0 mg/kg/injection, schedule: Q01DX009 (ip), vehicle: saline
  survivor count: 6 of 6
T/C endpoint: mean survival time, dose: 256.0 mg/kg/injection, schedule: Q01DX001 (oral), vehicle: saline
  survivor count: 0 of 10
T/C endpoint: mean survival time, dose: 266.0 mg/kg/injection, schedule: Q01DX001 (ip), vehicle: saline
  survivor count: 4 of 6
T/C endpoint: mean survival time, dose: 266.0 mg/kg/injection, schedule: Q04DX003 (ip), vehicle: saline
  survivor count: 4 of 6
T/C endpoint: mean survival time, dose: 266.0 mg/kg/injection, schedule: Q08DX002 (ip), vehicle: saline
  survivor count: 4 of 6
T/C endpoint: mean survival time, dose: 300.0 mg/kg/injection, schedule: Q01DX001 (ip), vehicle: saline
  survivor count: 1 of 6
T/C endpoint: mean survival time, dose: 400.0 mg/kg/injection, schedule: Q01DX001 (ip), vehicle: saline
  survivor count: 5 of 6
T/C endpoint: mean survival time, dose: 400.0 mg/kg/injection, schedule: Q01DX009 (ip), vehicle: water
  survivor count: 0 of 10 and 10 of 10
T/C endpoint: mean survival time, dose: 400.0 mg/kg/injection, schedule: Q04DX003 (ip), vehicle: saline
  survivor count: 1 of 6 and 6 of 6
T/C endpoint: mean survival time, dose: 400.0 mg/kg/injection, schedule: Q08DX002 (ip), vehicle: saline
  survivor count: 5 of 6
T/C endpoint: median survival time, dose: 1.0 mg/kg/injection, schedule: Q01DX009 (ip), vehicle: water
  T/C: 138 % of control
T/C endpoint: median survival time, dose: 2.0 mg/kg/injection, schedule: Q01DX009 (sc), vehicle: water
  T/C: 144 % of control
T/C endpoint: median survival time, dose: 5.0 mg/kg/injection, schedule: Q01DX001 (ip), vehicle: water
  T/C: 142 % of control
T/C endpoint: median survival time, dose: 8.0 mg/kg/injection, schedule: Q01DX009 (ip), vehicle: water
  survivor count: 7 of 8
T/C endpoint: median survival time, dose: 8.0 mg/kg/injection, schedule: Q01DX009 (sc), vehicle: water
  survivor count: 8 of 8
T/C endpoint: median survival time, dose: 16.0 mg/kg/injection, schedule: Q01DX009 (ip), vehicle: water
  survivor count: 7 of 8
T/C endpoint: median survival time, dose: 16.0 mg/kg/injection, schedule: Q01DX009 (sc), vehicle: water
  survivor count: 3 of 8
T/C endpoint: median survival time, dose: 16.0 mg/kg/injection, schedule: Q04DX003 (ip), vehicle: water
  survivor count: 3 of 8
T/C endpoint: median survival time, dose: 16.0 mg/kg/injection, schedule: Q04DX003 (sc), vehicle: water
  survivor count: 4 of 8
T/C endpoint: median survival time, dose: 32.0 mg/kg/injection, schedule: Q04DX003 (ip), vehicle: water
  survivor count: 2 of 8
T/C endpoint: median survival time, dose: 32.0 mg/kg/injection, schedule: Q04DX003 (sc), vehicle: water
  survivor count: 3 of 8
